Experimental data as given in patent US7799530B2, “Genetic polymorphisms associated with cardiovascular disorders and drug response, methods of detection and uses thereof” (Celera Corporation, priority 2005, dated 2010).
“Also recorded” adds a separate entry of the source. At least one structure is not confirmed: it was looked up by name or label, or the drawing left a doubt.

Assays:
[1] = cited from earlier work
[2] = system: recurrent myocardial infarction (RMI) in CARE patients; assay: CARE trial: recurrent MI in pravastatin- vs placebo-treated patients stratified by SNP genotype; format: in vivo, human; conditions: heterozygous or minor-allele homozygous individuals
Text: In order to identify genetic markers associated with acute coronary events (e.g. MI, stroke, unstable angina, congestive heart failure, etc.) or response to statin treatment for the prevention of coronary events, samples were genotyped in two clinical trials: the Cholesterol and Recurrent Events (CARE) study (a randomized multicentral double-blinded trial on secondary prevention of acute coronary events with pravastatin; Sacks et al., Am. J. Cardiol. 68: 1436-1446[1991]), and the West of Scotland Coronary Prevention Study (WOSCOPS) study (Shepherd et al., N Eng J Med 333 (20), pp. 1301-7, Nov. 16, 1995; Packard et al., N Eng J Med 343 (16), pp. 1148-55, Oct. 19, 2000). […]
For genotyping SNPs in CARE patient samples, DNA was extracted from blood samples using conventional DNA extraction methods such as the QIAamp kit from Qiagen. […] Briefly, target DNA was amplified by multiplex PCR, the amplified product was submitted to a multiplex oligo ligation assay (OLA), the specific ligated products were hybridized to unique universal “ZIP code” oligomer sequences covalently attached to Luminex xMAP® Multi-Analyte COOH Microspheres, and these hybridization products/microspheres were detected in a rapid automated multiplex system using the Luminex 100 instrument. […]
An additional 175 markers were analyzed in samples from the CARE study (secondary MI prevention trial). […]

[3] = system: risk for all cause death in apolipoprotein ε4 allele carriers; conditions: patients with at least one apolipoprotein ε4 allele; cited from earlier work

Question: Which results are given for `CC[C@H](C)C(=O)O[C@H]1C[C@H](O)C=C2C=C[C@H](C)[C@H](CC[C@@H](O)C[C@@H](O)CC(=O)O)[C@H]21` [pravastatin]?
Answer: diffusion across membranes / cellular uptake [1]: require specific cell surface transporters for cellular uptake; Effect of pravastatin treatment on coronary events in carriers of the hCV3054799 minor (risk) allele [2]: benefited; also recorded: significantly protected

Question: Which “effect on higher risk for all cause death of apolipoprotein ε4 allele carriers” value [3] does the source give for `CCC(C)(C)C(=O)O[C@H]1C[C@@H](C)C=C2C=C[C@H](C)[C@H](CC[C@@H]3C[C@@H](O)CC(=O)O3)[C@H]21` [simvastatin] here?
Answer: reversed this detrimental effect
